Residue numbers refer to the chain shown, from its start. No constants are given. Whether binding was seen depends on the method and setting. Some results given as binding are weak or reduced against the parent protein; the word gives no strength.

The target in assay [1] is T1, ITPRIPL1 P8 polypeptide (human).
T1 sequence (peptide): RLLEMEFEERKRAAE
In words: peptide ELISA, retold in Example 25. In general terms: ELISA stands for enzyme-linked immunosorbent assay.

For assay [2] the target is unchanged. The experiment in a line: ELISA, peptides coated at 1 µg/ml, antibody at 1 µg/ml.
For assay [3], the target named is T2, cynomolgus monkey ITPRIPL1 polypeptide corresponding to human ITPRIPL1 P8 (cynomolgus monkey).
T2 sequence (peptide): RLLEMEFEERKQAAE
The experiment in a line: ELISA, peptide coated at 1 µg/ml, antibody at 0.5 µg/ml.

B1: monoclonal antibody 18B12D1A6 (antibody, mouse IgG1, kappa, V domains shown)
VH: QVQLQQSGPELVKPGASVKMSCKASGYTFTDYVISWVKQRTGQGLEWIGEIFPRTGSTYFNENFKAKATLTADKSSNTAYMQLSSLTSEDSAAYFCAFITSVDWAMEYWGQGTSVTVSS
VL: DVVMTQIPLSLPVSLGDQASISCRSSQSLANSKGNTHLHWYLQKPGQSPKLLIYKVSNRFSGVPDRFSGSGSGTDFTLKISRVEAEDLGLYFCSQSTHVPYTFGGGTKLEIKR
In the case of B1, the binding result in assay [1] and in assay [2] was “binds” throughout.

B2: monoclonal antibody 13B7A6H3 (antibody, mouse IgG1, kappa, V domains shown)
VH: B1 VH with K19R, A24T, T41P, F60Y, K67T
VL: B1 VL with I7T, Q27E, A30V, L90V, V99A
As to B2, in assay [3], the binding result was “binds”.

Source of the values: patent US20240034776A1.
